Values from PubChem BioAssay AID1259405 (NCATS, 2018)
Assay: 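Knock-downs that lift recombinant protein yield in hamster ovary cells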 (primary screen). Cells: Chinese hamster CHO-K1 ovary cells with stable secreted eGFP expression. Knock-down reagent: single siRNA against mouse genes, 0.8 pmol siRNA per well (2 µl of 400 nM stock). Time to read-out: 3 days. Read-out: 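Percent of the per-plate non-targeting control median for intracellular GFP per well by laser scanning cytometry and for cell viability by ATP luminescence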. Reading the numbers: GFP, % of control: higher = more GFP per well, higher productivity; viability (ATP), % of control: higher = more viable cells (more ATP). Call rule: 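a knock-down is called active if GFP reaches 120% or more of non-targeting control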.
The whole screen tested about 50,000 reagents; shown is a random part of them. Of all reagents, about 4,000 (8%) were called active. 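Mouse siRNA library applied to hamster cells; one well for each siRNA.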 A number with no mark means an inactive call. Reagents against one gene are numbered here.

target,siRNA no.,"GFP, % of control","viability (ATP), % of control"
B4galt4,1,106,102
B4galt4,2,82.4,116
B4galt4,3,72.9,94.1
C1qtnf12,1,109,87.9
C1qtnf12,2,101,70.1
C1qtnf12,3,69.7,64.2
Bcl11b,1,109,85.9
Bcl11b,2,71.9,60.2
Golga3,1,84.9,74.4
Golga3,2,87.4,91.8
Golga3,3,99.3,83.7
Prpf4,1,77.4,79.5
Prpf4,2,49.1,84.8
Prpf4,3,60.5,76.6
Tubg2,1,50,59.8
Tubg2,2,119,141
Ppp1r35,1,29.1,25.1
Ppp1r35,2,54.5,54.2
Ppp1r35,3,89.6,121
BC016579,1,57.6,62.5
BC016579,2,80.9,88.2
BC016579,3,126 (active),111
Or4c112,1,56.8,41.9
Or4c112,2,95.6,61.8
Or4c112,3,80.6,103
Nid1,1,84.3,109
Nid1,2,86.1,75.8
Krtap14,1,91.2,105
Krtap14,2,79.8,90.3
Krtap14,3,94.8,92.4
Pkm,1,106,89.8
Commd8,1,83.1,93.6
Commd8,2,92.3,35.9
Commd8,3,92.7,113
Gck,1,50.7,39.2
Sf3b6,1,119,116
Sf3b6,2,38.8,89.4
Sf3b6,3,77,42.9
Tas1r2,1,37.3,58.8
Tas1r2,2,73.2,82.3
Tas1r2,3,83.4,95.9
Vmp1,1,125 (active),83.4
Vmp1,2,67.3,82.4
Vmp1,3,72.7,79.3
Oscar,1,14.9,7.57
Oscar,2,69.2,61.6
Oscar,3,61.8,65.2
Top2b,1,75.2,87.4
Top2b,2,123 (active),113
Top2b,3,79.3,74.4
Irag2,1,154 (active),90.1
Irag2,2,29.8,49
Irag2,3,79.2,48.6
Itgb2,1,102,64.6
Itgb2,2,63.5,62.6
Itgb2,3,55.9,35.2
Fpr-rs4,1,99.4,90.5
Fpr-rs4,2,45.9,41.9
Fpr-rs4,3,77.1,89.9
Or9i1b,1,35.8,48.6
Or9i1b,2,32.9,75
Or9i1b,3,38,57.8
Ptpn4,1,69.2,93.2
Ptpn4,2,71.7,97.7
Cemip,1,95,77.4
Cemip,2,44.3,60.7
Cemip,3,37.9,41.7
Fgf15,1,65.1,82.8
Fgf15,2,33.8,39.3
Fgf15,3,89.4,69.1
Rnf26,1,63.7,64
Rnf26,2,79.3,77.4
Rnf26,3,94.2,119
Rcl1,1,80.2,80.9
Rcl1,2,97.4,88.1
Rcl1,3,96,88.9
Xrcc5,1,86,81.1
Xrcc5,2,68.4,77.7
Xrcc5,3,61.2,84.6
Lcmt1,1,39.9,38
Lcmt1,2,79.4,86.5
Lcmt1,3,51.5,58.8
Rngtt,1,74.3,64.2
Rngtt,2,66.4,63.4
Rngtt,3,104,84.7
Hsf1,1,106,99.8
Hsf1,2,90.5,72.6
Hsf1,3,106,104
Crtc1,1,80.3,54.8
Crtc1,2,65.3,77.8
Crtc1,3,78.3,75.1
Ing4,1,84.5,87.1
Ing4,2,53.5,42
Fam107a,1,40.9,42
Fam107a,2,64.8,104
Fam107a,3,56.6,124
Nr5a2,1,57.6,87.2
Nr5a2,2,125 (active),92.6
Nr5a2,3,93.8,41.5
Ablim2,1,68.1,56.4
Ablim2,2,65.1,72.4
Ablim2,3,99.4,58.8
Itpr1,1,141 (active),78.2
Itpr1,2,86.3,60.9
Itpr1,3,85.8,46.5
Anks6,1,64.8,63.5
Anks6,2,91,116
Anks6,3,48.9,78

4 entries from above, showing only “GFP, % of control”:
Itgb2 #3: 55.9
Fpr-rs4 #1: 99.4
Fpr-rs4 #2: 45.9
Fpr-rs4 #3: 77.1
